Measured values as given in article PMC3296696.
These are yes or no findings as the source states them, for the method shown. In cells and extracts the contact can be indirect. Some entries that bind do so weakly or less than the wild type.

The chains behind the UniProt entries cited, without tags or fusion partners. Where a name states a change or a piece, a line headed by the entry shows the natural chain unless it says otherwise. A line that says so, or that is headed by a name, gives the form on record, which may keep a tag or linker.
UniProt Q13526: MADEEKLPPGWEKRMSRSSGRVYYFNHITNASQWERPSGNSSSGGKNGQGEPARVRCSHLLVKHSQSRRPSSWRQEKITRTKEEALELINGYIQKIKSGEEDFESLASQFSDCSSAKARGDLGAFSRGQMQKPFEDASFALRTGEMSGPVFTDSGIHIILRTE
HA-CREB wild-type (P16220-1, form named): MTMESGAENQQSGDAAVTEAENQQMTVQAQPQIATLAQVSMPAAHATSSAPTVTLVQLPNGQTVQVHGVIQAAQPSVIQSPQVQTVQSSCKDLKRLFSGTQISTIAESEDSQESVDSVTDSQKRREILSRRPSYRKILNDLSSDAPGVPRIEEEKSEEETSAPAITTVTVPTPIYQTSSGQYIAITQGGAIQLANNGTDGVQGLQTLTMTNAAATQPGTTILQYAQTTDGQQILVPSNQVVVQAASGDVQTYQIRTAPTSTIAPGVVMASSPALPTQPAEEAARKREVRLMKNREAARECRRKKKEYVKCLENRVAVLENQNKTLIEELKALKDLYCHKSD

Biological target: GST-Pin1 (UniProt Q13526)
Test: pull-down; lysates of COS-7 cells transfected with HA-CREB (stimulated with 10 µM forskolin for 6 hr) incubated with 30 µg of GST-Pin1 for 30 min at 4°C, then glutathione-sepharose 4B beads for 1 hr at 4°C; washed three times; blot with anti-HA antibody; only the target purified

Question: With “HA-CREB wild-type (from UniProt P16220-1 1-341)” as the substance, how does the binding read?
Answer: The binding was “binds”.
